Measured values reported in patent EP4725969A1 (Latticon (Suzhou) Biopharmaceuticals Co., Ltd., dated 2024).
Results are given in words; binding and its absence hold for the method and conditions named. Some binding calls cover weakened binding; strength is not graded here.

Tests used:
[1] = target: T1, human HER2 expressed on tumor cells (human, UniProt P04626 23-1255); assay: flow cytometry, RT-112 cells
T1 construct: whole, on cells; Cell line is named in each row's assay

[2] = target: T1, human HER2 expressed on tumor cells; assay: flow cytometry, BT474 cells
[3] = target: T1, human HER2 expressed on tumor cells; assay: flow cytometry, BT474 cells, 10 µg/mL
[4] = target: T1, human HER2 expressed on tumor cells; assay: flow cytometry, RT-112 cells, 10 µg/mL
[5] = target: recombinant human HER2 extracellular domain protein (human) (UniProt P04626); assay: ELISA, coated HER2 ECD

B1: Hu2117-HK203 (Fc fusion)
scFv: EVQLVESGGGLVQPGGSLRLSCAASGFTYSSYGMSWVRQAPGKGLEWVASISGGGNYAKYVDSVKGRFTISRDNSKNTLYLQMNSLRAEDTAVYYCARDYVGFFDVWGQGTLVTVSSGGGGSGGGGSGGGGSDIQMTQSPSSLSASVGDRVTITCRSSQSLVHSNRNTYLHWYQQKPGKAPKLLIYKVSNRFSGVPSRFSGSGSGTDFTLTISSLQPEDFATYFCSQSTHVPYTFGQGTKVEIK
notes: scFv-hIgG1 Fc; not shown: human IgG1 Fc
[1]
  binding: binds
[2]
  binding: binds
[3]
  binding: binds
[4]
  binding: binds

B2: Hu2117-HK303 (Fc fusion)
scFv: EVQLVESGGGLVQPGGSLRLSCAASGFTYSSYGMSWVRQAPGKGLEWVASISGGGNYAKYVESVKGRFTISRDNSKNTLYLQMNSLRAEDTAVYYCARDYVGFFDVWGQGTLVTVSSGGGGSGGGGSGGGGSDIQMTQSPSSLSASVGDRVTITCRSSQSLVHSNRNTYLHWYQQKPGKAPKLLIYKVSNRFSGVPSRFSGSGSGTDFTLTISSLQPEDFATYFCSQSTHVPYTFGQGTKVEIK
notes: as for B1
[1]
  binding: binds
[2]
  binding: binds
[4]
  binding: binds

B3: Hu2117-HK304 (Fc fusion)
scFv: EVQLVESGGGLVQPGGSLRLSCAASGFTYSSYGMSWVRQAPGKGLEWVASISGGGNYAKYVPSVKGRFTISRDNSKNTLYLQMNSLRAEDTAVYYCARDYVGFFDVWGQGTLVTVSSGGGGSGGGGSGGGGSDIQMTQSPSSLSASVGDRVTITCRSSQSLVHSNRNTYLHWYQQKPGKAPKLLIYKVSNRFSGVPSRFSGSGSGTDFTLTISSLQPEDFATYFCSQSTHVPYTFGQGTKVEIK
notes: as for B1
[1]
  binding: binds
[2]
  binding: binds
[4]
  binding: binds

B4: Hu2117-HK309 (Fc fusion)
scFv: EVQLVESGGGLVQPGGSLRLSCAASGFTYSSYGMSWVRQAPGKGLEWVASISGGGNYAKYVDKVKGRFTISRDNSKNTLYLQMNSLRAEDTAVYYCARDYVGFFDVWGQGTLVTVSSGGGGSGGGGSGGGGSDIQMTQSPSSLSASVGDRVTITCRSSQSLVHSNRNTYLHWYQQKPGKAPKLLIYKVSNRFSGVPSRFSGSGSGTDFTLTISSLQPEDFATYFCSQSTHVPYTFGQGTKVEIK
notes: as for B1
[1]
  binding: binds
[2]
  binding: binds
[4]
  binding: binds

B5: Hu2117-HK310 (Fc fusion)
scFv: EVQLVESGGGLVQPGGSLRLSCAASGFTYSSYGMSWVRQAPGKGLEWVASISGGGNYAKYVDNVKGRFTISRDNSKNTLYLQMNSLRAEDTAVYYCARDYVGFFDVWGQGTLVTVSSGGGGSGGGGSGGGGSDIQMTQSPSSLSASVGDRVTITCRSSQSLVHSNRNTYLHWYQQKPGKAPKLLIYKVSNRFSGVPSRFSGSGSGTDFTLTISSLQPEDFATYFCSQSTHVPYTFGQGTKVEIK
notes: as for B1
[1]
  binding: binds
[2]
  binding: binds
[4]
  binding: binds

B6: Hu2117HK-Mu01 (Fc fusion)
scFv: EVQLVESGGGLVQPGGSLRLSCAASGFTYSSYGMSWVRQAPGKGLEWVASISGGGSYTKYPDSVKGRFTISRDNSKNTLYLQMNSLRAEDTAVYYCARDYAGFFDVWGQGTLVTVSSGGGGSGGGGSGGGGSDIQMTQSPSSLSASVGDRVTITCRSSQSLVHSNGNTYLHWYQQKPGKSPKLLIYKVSNRFSGVPSRFSGSGSGTDFTLTISSLQPEDFATYFCSQSTHVPYTFGQGTKVEIK
notes: as for B1
[1]
  binding: binds
[2]
  binding: binds

B7: Hu2117HK-Mu02 (Fc fusion)
scFv: EVQLVESGGGLVQPGGSLRLSCAASGFTYSSYGMSWVRQAPGKGLEWVASISGGGSYTKYPDSVKGRFTISRDNSKNTLYLQMNSLRAEDTAVYYCARDYAGFFDVWGQGTLVTVSSGGGGSGGGGSGGGGSDIQMTQSPSSLSASVGDRVTITCRSSQSLVHSNGNTYLHWYQQKPGKAPKLLIYKVSNRFSGVPSRFSGSGSGTDFTLTISSLQPEDFAVYFCSQSTHVPYTFGQGTKVEIK
notes: as for B1
[1]
  binding: binds
[2]
  binding: binds

B8: Hu2117HK-Mu03 (Fc fusion)
scFv: EVQLVESGGGLVQPGGSLRLSCAASGFTYSSYGMSWVRQAPGKGLEWVASISGGGSYTKYPDSVKGRFTISRDNSKNTLYLQMNSLRAEDTAVYYCARDYAGFFDVWGQGTLVTVSSGGGGSGGGGSGGGGSDVQMTQSPSSLSASVGDRVTITCRSSQSLVHSNGNTYLHWYQQKPGKAPKLLIYKVSNRFSGVPSRFSGSGSGTDFTLTISSLQPEDFATYFCSQSTHVPYTFGQGTKVEIK
notes: as for B1
[1]
  binding: binds
[2]
  binding: binds

B9: Hu2117HK-Mu04 (Fc fusion)
scFv: EVQLVESGGGLVQPGGSLRLSCAASGFTYSSYGMSWVRQAPGKGLEWVASISGGGSYTKYPDSVKGRFTISRDNSKNTLYLQMNSLRAEDTAVYYCARDYAGFFDVWGQGTLVTVSSGGGGSGGGGSGGGGSDIQLTQSPSSLSASVGDRVTITCRSSQSLVHSNGNTYLHWYQQKPGKAPKLLIYKVSNRFSGVPSRFSGSGSGTDFTLTISSLQPEDFATYFCSQSTHVPYTFGQGTKVEIK
notes: as for B1
[1]
  binding: binds
[2]
  binding: binds

B10: Hu2117-HK202 (Fc fusion, not shown: a dimerising Fc or GST)
scFv: EVQLVESGGGLVQPGGSLRLSCAASGFTYSSYGMSWVRQAPGKGLEWVASISGGGSYTKYPDSVKGRFTISRDNSKNTLYLQMNSLRAEDTAVYYCARDYVGFFDVWGQGTLVTVSSGGGGSGGGGSGGGGSDIQMTQSPSSLSASVGDRVTITCRSSQSLVHSNRNTYLHWYQQKPGKAPKLLIYKVSNRFSGVPSRFSGSGSGTDFTLTISSLQPEDFATYFCSQSTHVPYTFGQGTKVEIK
[3]
  binding: binds
[4]
  binding: binds

B11: Hu2117-HK301 (Fc fusion, not shown: a dimerising Fc or GST)
scFv: EVQLVESGGGLVQPGGSLRLSCAASGFTYSSYGMSWVRQAPGKGLEWVASISGGGNYAKYVGSVKGRFTISRDNSKNTLYLQMNSLRAEDTAVYYCARDYVGFFDVWGQGTLVTVSSGGGGSGGGGSGGGGSDIQMTQSPSSLSASVGDRVTITCRSSQSLVHSNRNTYLHWYQQKPGKAPKLLIYKVSNRFSGVPSRFSGSGSGTDFTLTISSLQPEDFATYFCSQSTHVPYTFGQGTKVEIK
[4]
  binding: binds

B12: Hu2117-HK305 (Fc fusion, not shown: a dimerising Fc or GST)
scFv: EVQLVESGGGLVQPGGSLRLSCAASGFTYSSYGMSWVRQAPGKGLEWVASISGGGNYAKYVQSVKGRFTISRDNSKNTLYLQMNSLRAEDTAVYYCARDYVGFFDVWGQGTLVTVSSGGGGSGGGGSGGGGSDIQMTQSPSSLSASVGDRVTITCRSSQSLVHSNRNTYLHWYQQKPGKAPKLLIYKVSNRFSGVPSRFSGSGSGTDFTLTISSLQPEDFATYFCSQSTHVPYTFGQGTKVEIK
[4]
  binding: binds

B13: Hu2117-HK306 (Fc fusion, not shown: a dimerising Fc or GST)
scFv: EVQLVESGGGLVQPGGSLRLSCAASGFTYSSYGMSWVRQAPGKGLEWVASISGGGNYAKYVRSVKGRFTISRDNSKNTLYLQMNSLRAEDTAVYYCARDYVGFFDVWGQGTLVTVSSGGGGSGGGGSGGGGSDIQMTQSPSSLSASVGDRVTITCRSSQSLVHSNRNTYLHWYQQKPGKAPKLLIYKVSNRFSGVPSRFSGSGSGTDFTLTISSLQPEDFATYFCSQSTHVPYTFGQGTKVEIK
[4]
  binding: binds

B14: mAb2128 (antibody, V domains shown)
VH: EVQLQQSGPELVKPGASVKIPCKASGYTFTDYNMDWVKQSHGKSLEWIGDINPNNGGTIYNQKFKGKATLTVDKSSSTAYMELRSLTSEDTAVYYCARYGSGYGGFAYWGQGTLVTVSS
VL: DIVLTQSPTTMAASPGEKITITCSASSSISSNYLHWYQQKPGFSPKLLIYRTSNLASGVPARFSGSGSGTSYSLTIGTMEAEDVATYYCQQGSSIPRTFGGGTKLEIK
notes: Chimeric human IgG1/Cκ
[5]
  binding: binds
